Publication PMC4750278
No constants are given. Whether binding was seen depends on the method and setting. Some binding calls cover weakened binding; strength is not graded here. For part of these data: Sequences can lack the tags named with a protein.

Columns and labels:
[1] = target: T1, recombinant UVR8 (UV … LOCUS 8) (Arabidopsis), Q9FN03; experiment: SDS-PAGE of non-boiled samples; purified recombinant UVR8 without UV-B treatment, with or without reconstituted nucleosomes; samples boiled or non-boiled; Coomassie Blue; both purified; conditions: remark: other sources report otherwise
T1 chain: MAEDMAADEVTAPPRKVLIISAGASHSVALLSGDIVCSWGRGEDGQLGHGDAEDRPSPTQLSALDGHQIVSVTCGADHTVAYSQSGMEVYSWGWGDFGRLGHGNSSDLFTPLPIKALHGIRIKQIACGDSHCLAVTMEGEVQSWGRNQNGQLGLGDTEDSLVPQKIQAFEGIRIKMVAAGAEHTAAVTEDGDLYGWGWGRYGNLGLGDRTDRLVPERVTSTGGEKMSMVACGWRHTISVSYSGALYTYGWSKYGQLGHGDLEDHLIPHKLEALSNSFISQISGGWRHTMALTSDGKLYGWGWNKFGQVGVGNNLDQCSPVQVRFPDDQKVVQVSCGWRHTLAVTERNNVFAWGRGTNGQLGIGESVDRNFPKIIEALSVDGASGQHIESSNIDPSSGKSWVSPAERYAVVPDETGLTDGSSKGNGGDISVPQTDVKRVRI

[2] = target: recombinant UVR8 (UV … LOCUS 8) (Arabidopsis) (UniProt Q9FN03); experiment: SDS-PAGE of non-boiled samples; purified recombinant UVR8 after UV-B treatment, with or without reconstituted nucleosomes; samples boiled or non-boiled; Coomassie Blue; both purified
[3] = target: T2, HY5 (ELONGATED HYPOCOTYL 5) fused to the LexA DNA binding domain (Arabidopsis) (UniProt O24646); experiment: two-hybrid; L40 yeast cells; HY5 fused to the LexA DNA binding domain
T2 sequence: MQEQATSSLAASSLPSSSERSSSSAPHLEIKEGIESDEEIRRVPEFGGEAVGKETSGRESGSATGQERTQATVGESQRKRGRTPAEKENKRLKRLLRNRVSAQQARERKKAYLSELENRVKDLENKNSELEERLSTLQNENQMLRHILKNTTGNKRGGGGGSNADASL

B1: recombinant UVR8 (UV … LOCUS 8), Q9FN03 1-440 (protein)
chain: MAEDMAADEVTAPPRKVLIISAGASHSVALLSGDIVCSWGRGEDGQLGHGDAEDRPSPTQLSALDGHQIVSVTCGADHTVAYSQSGMEVYSWGWGDFGRLGHGNSSDLFTPLPIKALHGIRIKQIACGDSHCLAVTMEGEVQSWGRNQNGQLGLGDTEDSLVPQKIQAFEGIRIKMVAAGAEHTAAVTEDGDLYGWGWGRYGNLGLGDRTDRLVPERVTSTGGEKMSMVACGWRHTISVSYSGALYTYGWSKYGQLGHGDLEDHLIPHKLEALSNSFISQISGGWRHTMALTSDGKLYGWGWNKFGQVGVGNNLDQCSPVQVRFPDDQKVVQVSCGWRHTLAVTERNNVFAWGRGTNGQLGIGESVDRNFPKIIEALSVDGASGQHIESSNIDPSSGKSWVSPAERYAVVPDETGLTDGSSKGNGGDISVPQTDVKRVRI
Q: Which binding [1] does the source give for B1 here?
A: The binding was “binds”.

B2: recombinant UVR8 (UV … LOCUS 8) (protein, UniProt Q9FN03 1-440)
chain: MAEDMAADEVTAPPRKVLIISAGASHSVALLSGDIVCSWGRGEDGQLGHGDAEDRPSPTQLSALDGHQIVSVTCGADHTVAYSQSGMEVYSWGWGDFGRLGHGNSSDLFTPLPIKALHGIRIKQIACGDSHCLAVTMEGEVQSWGRNQNGQLGLGDTEDSLVPQKIQAFEGIRIKMVAAGAEHTAAVTEDGDLYGWGWGRYGNLGLGDRTDRLVPERVTSTGGEKMSMVACGWRHTISVSYSGALYTYGWSKYGQLGHGDLEDHLIPHKLEALSNSFISQISGGWRHTMALTSDGKLYGWGWNKFGQVGVGNNLDQCSPVQVRFPDDQKVVQVSCGWRHTLAVTERNNVFAWGRGTNGQLGIGESVDRNFPKIIEALSVDGASGQHIESSNIDPSSGKSWVSPAERYAVVPDETGLTDGSSKGNGGDISVPQTDVKRVRI
Q: For B2, which binding [2] is on record?
A: Its binding is “no binding (condition: after UV-B treatment)”.

B3: UVR8 in the yeast two-hybrid assay (protein, UniProt Q9FN03 1-440)
chain: MAEDMAADEVTAPPRKVLIISAGASHSVALLSGDIVCSWGRGEDGQLGHGDAEDRPSPTQLSALDGHQIVSVTCGADHTVAYSQSGMEVYSWGWGDFGRLGHGNSSDLFTPLPIKALHGIRIKQIACGDSHCLAVTMEGEVQSWGRNQNGQLGLGDTEDSLVPQKIQAFEGIRIKMVAAGAEHTAAVTEDGDLYGWGWGRYGNLGLGDRTDRLVPERVTSTGGEKMSMVACGWRHTISVSYSGALYTYGWSKYGQLGHGDLEDHLIPHKLEALSNSFISQISGGWRHTMALTSDGKLYGWGWNKFGQVGVGNNLDQCSPVQVRFPDDQKVVQVSCGWRHTLAVTERNNVFAWGRGTNGQLGIGESVDRNFPKIIEALSVDGASGQHIESSNIDPSSGKSWVSPAERYAVVPDETGLTDGSSKGNGGDISVPQTDVKRVRI
Q: For B3, which binding [3] is on record?
A: The binding was “no binding”.
